Source: PMC5534433
These are yes or no findings as the source states them, for the method shown. In cells and extracts the contact can be indirect. Some binding calls cover weakened binding; strength is not graded here. For some assays here: Where a sequence is shown, tags or fusion partners need not be part of it.

Protein sequences, listed by entry. Tags and fused reporters are not part of them.
UniProt P53327: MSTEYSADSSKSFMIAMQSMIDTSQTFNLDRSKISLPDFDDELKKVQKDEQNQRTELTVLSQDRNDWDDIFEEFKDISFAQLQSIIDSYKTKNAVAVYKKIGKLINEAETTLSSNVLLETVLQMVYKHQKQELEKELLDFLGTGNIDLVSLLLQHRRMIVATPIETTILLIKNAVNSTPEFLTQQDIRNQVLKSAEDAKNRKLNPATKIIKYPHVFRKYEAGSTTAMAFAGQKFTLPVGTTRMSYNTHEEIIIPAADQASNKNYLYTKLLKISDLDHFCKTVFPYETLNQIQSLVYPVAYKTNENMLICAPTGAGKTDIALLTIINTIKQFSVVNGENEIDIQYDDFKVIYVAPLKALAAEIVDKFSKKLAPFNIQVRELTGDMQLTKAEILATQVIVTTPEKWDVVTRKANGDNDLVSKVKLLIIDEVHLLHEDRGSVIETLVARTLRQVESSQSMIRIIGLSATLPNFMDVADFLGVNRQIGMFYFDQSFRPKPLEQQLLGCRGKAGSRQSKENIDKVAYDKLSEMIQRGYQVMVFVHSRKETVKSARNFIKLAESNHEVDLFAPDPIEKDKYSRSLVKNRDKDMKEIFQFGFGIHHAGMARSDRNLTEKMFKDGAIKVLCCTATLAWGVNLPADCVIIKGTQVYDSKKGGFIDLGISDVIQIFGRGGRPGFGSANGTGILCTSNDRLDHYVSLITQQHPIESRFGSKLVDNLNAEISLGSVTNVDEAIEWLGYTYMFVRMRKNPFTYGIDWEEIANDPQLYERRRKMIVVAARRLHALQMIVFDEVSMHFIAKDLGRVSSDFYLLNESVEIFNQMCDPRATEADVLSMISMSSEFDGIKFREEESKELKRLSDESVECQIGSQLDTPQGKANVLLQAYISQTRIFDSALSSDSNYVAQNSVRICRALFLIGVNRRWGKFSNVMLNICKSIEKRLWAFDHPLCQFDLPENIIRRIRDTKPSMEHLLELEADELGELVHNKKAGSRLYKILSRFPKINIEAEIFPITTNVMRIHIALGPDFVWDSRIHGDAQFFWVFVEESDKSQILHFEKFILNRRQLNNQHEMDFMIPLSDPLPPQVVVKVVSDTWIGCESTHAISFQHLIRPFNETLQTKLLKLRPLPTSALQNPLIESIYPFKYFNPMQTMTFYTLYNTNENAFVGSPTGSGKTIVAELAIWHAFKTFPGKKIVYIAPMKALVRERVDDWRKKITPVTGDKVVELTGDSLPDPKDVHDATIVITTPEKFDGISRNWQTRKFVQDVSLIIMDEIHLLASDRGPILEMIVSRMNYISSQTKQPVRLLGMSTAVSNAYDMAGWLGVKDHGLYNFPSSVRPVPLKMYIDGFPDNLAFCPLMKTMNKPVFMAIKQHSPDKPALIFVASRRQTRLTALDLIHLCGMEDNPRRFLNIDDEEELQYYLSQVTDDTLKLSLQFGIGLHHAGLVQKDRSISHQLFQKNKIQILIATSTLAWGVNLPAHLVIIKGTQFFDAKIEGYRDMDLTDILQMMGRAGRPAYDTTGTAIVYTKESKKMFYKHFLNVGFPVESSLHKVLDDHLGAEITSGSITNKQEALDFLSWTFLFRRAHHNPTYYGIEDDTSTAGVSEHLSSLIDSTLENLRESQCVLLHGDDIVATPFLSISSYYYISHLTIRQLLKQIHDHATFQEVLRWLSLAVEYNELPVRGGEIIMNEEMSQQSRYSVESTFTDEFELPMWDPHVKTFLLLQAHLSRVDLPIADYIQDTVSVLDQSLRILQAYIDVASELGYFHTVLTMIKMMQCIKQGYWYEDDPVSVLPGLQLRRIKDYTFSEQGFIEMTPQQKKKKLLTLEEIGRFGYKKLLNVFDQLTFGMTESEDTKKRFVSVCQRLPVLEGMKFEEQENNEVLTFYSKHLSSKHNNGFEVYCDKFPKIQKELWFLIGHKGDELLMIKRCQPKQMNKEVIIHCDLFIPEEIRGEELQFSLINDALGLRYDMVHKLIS
UniProt Q8N3C0: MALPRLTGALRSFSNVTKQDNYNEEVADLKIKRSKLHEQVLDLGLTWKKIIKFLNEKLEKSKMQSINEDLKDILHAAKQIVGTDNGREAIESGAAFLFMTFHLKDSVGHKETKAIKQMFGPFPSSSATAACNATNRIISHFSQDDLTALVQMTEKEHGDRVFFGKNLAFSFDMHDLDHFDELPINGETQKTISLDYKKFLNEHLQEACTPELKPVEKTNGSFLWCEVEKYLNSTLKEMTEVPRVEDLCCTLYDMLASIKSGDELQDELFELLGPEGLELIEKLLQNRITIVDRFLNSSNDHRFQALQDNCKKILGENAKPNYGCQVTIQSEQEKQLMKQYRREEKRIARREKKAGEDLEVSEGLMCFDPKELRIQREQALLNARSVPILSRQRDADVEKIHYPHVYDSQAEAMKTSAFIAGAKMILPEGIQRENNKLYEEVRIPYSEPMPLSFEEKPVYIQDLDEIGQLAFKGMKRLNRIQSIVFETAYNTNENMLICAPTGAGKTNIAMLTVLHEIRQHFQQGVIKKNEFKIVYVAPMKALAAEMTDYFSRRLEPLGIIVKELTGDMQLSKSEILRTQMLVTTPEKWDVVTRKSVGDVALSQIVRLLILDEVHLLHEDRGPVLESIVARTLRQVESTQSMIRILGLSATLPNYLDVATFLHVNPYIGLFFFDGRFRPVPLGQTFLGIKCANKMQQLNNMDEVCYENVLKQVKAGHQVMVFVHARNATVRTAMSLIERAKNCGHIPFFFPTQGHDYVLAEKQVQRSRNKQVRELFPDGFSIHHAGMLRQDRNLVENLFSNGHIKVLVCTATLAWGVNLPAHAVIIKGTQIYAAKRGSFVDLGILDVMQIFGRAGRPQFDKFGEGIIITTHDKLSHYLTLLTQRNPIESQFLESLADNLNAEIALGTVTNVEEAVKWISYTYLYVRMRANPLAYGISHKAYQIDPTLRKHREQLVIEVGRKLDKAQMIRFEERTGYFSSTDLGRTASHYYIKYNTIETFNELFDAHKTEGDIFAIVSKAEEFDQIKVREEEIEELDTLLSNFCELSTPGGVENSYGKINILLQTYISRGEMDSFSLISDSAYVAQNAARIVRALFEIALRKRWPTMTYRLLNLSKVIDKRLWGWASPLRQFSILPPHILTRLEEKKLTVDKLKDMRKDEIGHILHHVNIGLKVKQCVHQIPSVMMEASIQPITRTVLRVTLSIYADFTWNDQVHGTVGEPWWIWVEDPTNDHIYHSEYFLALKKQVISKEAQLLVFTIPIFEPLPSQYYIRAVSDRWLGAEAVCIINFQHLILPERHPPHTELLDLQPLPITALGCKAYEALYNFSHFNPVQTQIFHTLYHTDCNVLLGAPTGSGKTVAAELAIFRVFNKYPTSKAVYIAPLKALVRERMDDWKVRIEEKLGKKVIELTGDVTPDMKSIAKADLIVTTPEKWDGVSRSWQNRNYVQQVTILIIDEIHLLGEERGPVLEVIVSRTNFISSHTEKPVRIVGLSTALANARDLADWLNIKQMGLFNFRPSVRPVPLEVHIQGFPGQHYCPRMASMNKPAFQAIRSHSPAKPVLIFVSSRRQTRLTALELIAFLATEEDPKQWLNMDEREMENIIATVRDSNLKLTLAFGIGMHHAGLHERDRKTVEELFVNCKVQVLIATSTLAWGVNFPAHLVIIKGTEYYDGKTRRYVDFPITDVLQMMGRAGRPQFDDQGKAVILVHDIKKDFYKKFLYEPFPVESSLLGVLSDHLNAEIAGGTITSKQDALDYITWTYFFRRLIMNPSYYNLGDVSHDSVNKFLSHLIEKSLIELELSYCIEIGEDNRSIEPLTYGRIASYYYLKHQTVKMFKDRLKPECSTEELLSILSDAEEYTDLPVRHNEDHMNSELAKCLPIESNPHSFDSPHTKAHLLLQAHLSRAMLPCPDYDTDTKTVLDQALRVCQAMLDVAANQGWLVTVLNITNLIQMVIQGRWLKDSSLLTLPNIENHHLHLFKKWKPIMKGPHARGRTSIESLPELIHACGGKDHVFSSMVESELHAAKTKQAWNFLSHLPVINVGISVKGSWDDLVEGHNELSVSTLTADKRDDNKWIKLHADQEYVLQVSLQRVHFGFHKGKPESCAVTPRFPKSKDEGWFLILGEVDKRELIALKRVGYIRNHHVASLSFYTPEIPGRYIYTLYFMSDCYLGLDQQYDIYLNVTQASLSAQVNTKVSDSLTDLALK

Key:
[1] = target: Rqt2-HTP (His6-TEV-ProteinA) (S. cerevisiae) (UniProt P53327); experiment: co-IP; affinity purification via Rqt2-HTP, Rqt3-HTP or Rqt4-HTP from yeast lysate on IgG-conjugated Dynabeads, TEV elution (Rqt-ribosome complexes); said to be independent of uS10 ubiquitination by Rqt1
[2] = target: T1, Rqt4-HTP (His6-TEV-ProteinA) (S. cerevisiae) (UniProt P36119); experiment: as above
T1 sequence: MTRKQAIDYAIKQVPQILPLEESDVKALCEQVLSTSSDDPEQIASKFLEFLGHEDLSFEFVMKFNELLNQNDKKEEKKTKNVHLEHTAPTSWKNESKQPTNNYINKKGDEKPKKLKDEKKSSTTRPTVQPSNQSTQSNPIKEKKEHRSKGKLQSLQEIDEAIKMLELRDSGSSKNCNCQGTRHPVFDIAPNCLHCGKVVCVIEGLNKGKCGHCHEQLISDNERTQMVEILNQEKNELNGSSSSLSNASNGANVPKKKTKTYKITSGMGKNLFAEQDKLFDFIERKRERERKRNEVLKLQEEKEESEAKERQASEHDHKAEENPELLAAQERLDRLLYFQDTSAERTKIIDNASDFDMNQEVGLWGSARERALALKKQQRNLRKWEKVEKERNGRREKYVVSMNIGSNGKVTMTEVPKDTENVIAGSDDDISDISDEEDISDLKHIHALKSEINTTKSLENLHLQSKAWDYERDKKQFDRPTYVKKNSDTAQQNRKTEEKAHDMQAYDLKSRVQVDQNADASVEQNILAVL

[3] = target: Rqt2-FTP (overexpressed) (S. cerevisiae) (UniProt P53327); experiment: co-IP; Rqt2-FTP, Rqt3-3HA and Rqt4-3HA overexpressed in yeast; IgG beads, TEV elution, benzonase to digest the ribosome, re-purified on FLAG-M2 resin
[4] = target: T2, C-terminal FLAG-TEV-ProtA-tagged Rqt1 (Hel2) (S. cerevisiae) (UniProt Q05580); experiment: co-IP; Rqt1-ribosome complex purified from Rqt3-Ub-m mutant cells (Fig. 3d); how the partners were detected is not told
T2 sequence: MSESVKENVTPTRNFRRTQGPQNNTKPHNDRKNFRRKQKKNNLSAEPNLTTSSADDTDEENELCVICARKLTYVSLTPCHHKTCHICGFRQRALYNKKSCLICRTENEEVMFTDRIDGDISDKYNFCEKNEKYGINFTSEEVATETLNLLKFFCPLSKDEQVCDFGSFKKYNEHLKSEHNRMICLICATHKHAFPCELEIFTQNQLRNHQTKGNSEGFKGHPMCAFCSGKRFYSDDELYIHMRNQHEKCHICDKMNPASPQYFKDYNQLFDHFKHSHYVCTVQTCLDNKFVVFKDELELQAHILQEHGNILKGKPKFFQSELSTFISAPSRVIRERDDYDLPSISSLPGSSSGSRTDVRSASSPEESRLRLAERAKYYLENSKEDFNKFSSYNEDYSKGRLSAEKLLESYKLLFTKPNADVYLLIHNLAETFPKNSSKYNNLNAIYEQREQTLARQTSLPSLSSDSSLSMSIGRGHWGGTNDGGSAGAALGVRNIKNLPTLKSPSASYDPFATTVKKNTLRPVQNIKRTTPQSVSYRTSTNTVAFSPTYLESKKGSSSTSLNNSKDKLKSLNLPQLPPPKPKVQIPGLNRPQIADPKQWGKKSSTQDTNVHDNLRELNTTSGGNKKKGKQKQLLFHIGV

[5] = target: T3, Rqt3-HTP (His6-TEV-ProteinA) (S. cerevisiae) (UniProt P53137); experiment: co-IP; affinity purification via Rqt2-HTP, Rqt3-HTP or Rqt4-HTP from yeast lysate on IgG-conjugated Dynabeads, TEV elution (Rqt-ribosome complexes); said to be independent of uS10 ubiquitination by Rqt1
T3 sequence: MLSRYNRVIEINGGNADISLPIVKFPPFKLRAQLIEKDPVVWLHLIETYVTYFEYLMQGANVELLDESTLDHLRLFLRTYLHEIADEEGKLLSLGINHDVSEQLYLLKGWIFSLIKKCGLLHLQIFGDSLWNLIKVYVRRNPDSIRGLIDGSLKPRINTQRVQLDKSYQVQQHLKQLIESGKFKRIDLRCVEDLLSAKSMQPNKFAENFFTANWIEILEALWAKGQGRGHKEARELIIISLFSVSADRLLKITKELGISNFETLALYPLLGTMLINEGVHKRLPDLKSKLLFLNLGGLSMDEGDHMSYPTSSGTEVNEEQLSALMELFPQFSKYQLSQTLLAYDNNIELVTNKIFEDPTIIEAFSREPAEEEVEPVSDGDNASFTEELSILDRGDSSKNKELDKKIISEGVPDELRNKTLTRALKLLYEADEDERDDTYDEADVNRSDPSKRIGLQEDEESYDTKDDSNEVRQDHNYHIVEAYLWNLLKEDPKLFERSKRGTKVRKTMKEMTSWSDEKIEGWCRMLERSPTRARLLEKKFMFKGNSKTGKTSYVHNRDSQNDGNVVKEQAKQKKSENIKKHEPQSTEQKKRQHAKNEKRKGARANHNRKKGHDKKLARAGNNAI

[6] = target: Activating signal co-integrator complex subunit 3 (ASCC3) (human) (UniProt Q8N3C0); experiment: co-IP; immunoprecipitation of ASCC3 from HEK293T total cell lysate with 1 μg antibody and Protein G Dynabeads, 4 °C; 25 mM HEPES-KOH pH 7.4, 150 mM NaCl, 5 mM MgCl2, 1 mM EDTA, 1% IGEPAL-CA630; western blot

B1: Cue3 (coupling of ubiquitin conjugation to ER degradation 3) / Rqt3 (protein, UniProt P53137 1-624)
chain: MLSRYNRVIEINGGNADISLPIVKFPPFKLRAQLIEKDPVVWLHLIETYVTYFEYLMQGANVELLDESTLDHLRLFLRTYLHEIADEEGKLLSLGINHDVSEQLYLLKGWIFSLIKKCGLLHLQIFGDSLWNLIKVYVRRNPDSIRGLIDGSLKPRINTQRVQLDKSYQVQQHLKQLIESGKFKRIDLRCVEDLLSAKSMQPNKFAENFFTANWIEILEALWAKGQGRGHKEARELIIISLFSVSADRLLKITKELGISNFETLALYPLLGTMLINEGVHKRLPDLKSKLLFLNLGGLSMDEGDHMSYPTSSGTEVNEEQLSALMELFPQFSKYQLSQTLLAYDNNIELVTNKIFEDPTIIEAFSREPAEEEVEPVSDGDNASFTEELSILDRGDSSKNKELDKKIISEGVPDELRNKTLTRALKLLYEADEDERDDTYDEADVNRSDPSKRIGLQEDEESYDTKDDSNEVRQDHNYHIVEAYLWNLLKEDPKLFERSKRGTKVRKTMKEMTSWSDEKIEGWCRMLERSPTRARLLEKKFMFKGNSKTGKTSYVHNRDSQNDGNVVKEQAKQKKSENIKKHEPQSTEQKKRQHAKNEKRKGARANHNRKKGHDKKLARAGNNAI
In the case of B1, the binding [1] is reported as “binds” and the binding [2] is reported as “binds”.

B2: Rqt3-3HA (overexpressed) (protein, UniProt P53137 1-624)
chain: MLSRYNRVIEINGGNADISLPIVKFPPFKLRAQLIEKDPVVWLHLIETYVTYFEYLMQGANVELLDESTLDHLRLFLRTYLHEIADEEGKLLSLGINHDVSEQLYLLKGWIFSLIKKCGLLHLQIFGDSLWNLIKVYVRRNPDSIRGLIDGSLKPRINTQRVQLDKSYQVQQHLKQLIESGKFKRIDLRCVEDLLSAKSMQPNKFAENFFTANWIEILEALWAKGQGRGHKEARELIIISLFSVSADRLLKITKELGISNFETLALYPLLGTMLINEGVHKRLPDLKSKLLFLNLGGLSMDEGDHMSYPTSSGTEVNEEQLSALMELFPQFSKYQLSQTLLAYDNNIELVTNKIFEDPTIIEAFSREPAEEEVEPVSDGDNASFTEELSILDRGDSSKNKELDKKIISEGVPDELRNKTLTRALKLLYEADEDERDDTYDEADVNRSDPSKRIGLQEDEESYDTKDDSNEVRQDHNYHIVEAYLWNLLKEDPKLFERSKRGTKVRKTMKEMTSWSDEKIEGWCRMLERSPTRARLLEKKFMFKGNSKTGKTSYVHNRDSQNDGNVVKEQAKQKKSENIKKHEPQSTEQKKRQHAKNEKRKGARANHNRKKGHDKKLARAGNNAI
In the case of B2, the binding [3] is reported as “binds”.

B3: Rqt4-3HA (overexpressed) (protein, UniProt P36119 1-530)
chain: MTRKQAIDYAIKQVPQILPLEESDVKALCEQVLSTSSDDPEQIASKFLEFLGHEDLSFEFVMKFNELLNQNDKKEEKKTKNVHLEHTAPTSWKNESKQPTNNYINKKGDEKPKKLKDEKKSSTTRPTVQPSNQSTQSNPIKEKKEHRSKGKLQSLQEIDEAIKMLELRDSGSSKNCNCQGTRHPVFDIAPNCLHCGKVVCVIEGLNKGKCGHCHEQLISDNERTQMVEILNQEKNELNGSSSSLSNASNGANVPKKKTKTYKITSGMGKNLFAEQDKLFDFIERKRERERKRNEVLKLQEEKEESEAKERQASEHDHKAEENPELLAAQERLDRLLYFQDTSAERTKIIDNASDFDMNQEVGLWGSARERALALKKQQRNLRKWEKVEKERNGRREKYVVSMNIGSNGKVTMTEVPKDTENVIAGSDDDISDISDEEDISDLKHIHALKSEINTTKSLENLHLQSKAWDYERDKKQFDRPTYVKKNSDTAQQNRKTEEKAHDMQAYDLKSRVQVDQNADASVEQNILAVL
For B3, the binding [3] was “binds”.

B4: YKR023W / Rqt4 (protein, UniProt P36119 1-530)
chain: MTRKQAIDYAIKQVPQILPLEESDVKALCEQVLSTSSDDPEQIASKFLEFLGHEDLSFEFVMKFNELLNQNDKKEEKKTKNVHLEHTAPTSWKNESKQPTNNYINKKGDEKPKKLKDEKKSSTTRPTVQPSNQSTQSNPIKEKKEHRSKGKLQSLQEIDEAIKMLELRDSGSSKNCNCQGTRHPVFDIAPNCLHCGKVVCVIEGLNKGKCGHCHEQLISDNERTQMVEILNQEKNELNGSSSSLSNASNGANVPKKKTKTYKITSGMGKNLFAEQDKLFDFIERKRERERKRNEVLKLQEEKEESEAKERQASEHDHKAEENPELLAAQERLDRLLYFQDTSAERTKIIDNASDFDMNQEVGLWGSARERALALKKQQRNLRKWEKVEKERNGRREKYVVSMNIGSNGKVTMTEVPKDTENVIAGSDDDISDISDEEDISDLKHIHALKSEINTTKSLENLHLQSKAWDYERDKKQFDRPTYVKKNSDTAQQNRKTEEKAHDMQAYDLKSRVQVDQNADASVEQNILAVL
B4 was tested, and the binding [4] was “binds”, the binding [1] was “binds” and the binding [5] was “binds”.

B5: Zinc-finger protein 598 (ZNF598) (enzyme, UniProt Q86UK7 1-904)
chain: MAAAGGAEGRRAALEAAAAAAPERGGGSCVLCCGDLEATALGRCDHPVCYRCSTKMRVLCEQRYCAVCREELRQVVFGKKLPAFATIPIHQLQHEKKYDIYFADGKVYALYRQLLQHECPRCPELPPFSLFGDLEQHMRRQHELFCCRLCLQHLQIFTYERKWYSRKDLARHRMQGDPDDTSHRGHPLCKFCDERYLDNDELLKHLRRDHYFCHFCDSDGAQDYYSDYAYLREHFREKHFLCEEGRCSTEQFTHAFRTEIDLKAHRTACHSRSRAEARQNRHIDLQFSYAPRHSRRNEGVVGGEDYEEVDRYSRQGRVARAGTRGAQQSRRGSWRYKREEEDREVAAAVRASVAAQQQEEARRSEDQEEGGRPKKEEAAARGPEDPRGPRRSPRTQGEGPGPKETSTNGPVSQEAFSVTGPAAPGCVGVPGALPPPSPKLKDEDFPSLSASTSSSCSTAATPGPVGLALPYAIPARGRSAFQEEDFPALVSSVPKPGTAPTSLVSAWNSSSSSKKVAQPPLSAQATGSGQPTRKAGKGSRGGRKGGPPFTQEEEEDGGPALQELLSTRPTGSVSSTLGLASIQPSKVGKKKKVGSEKPGTTLPQPPPATCPPGALQAPEAPASRAEGPVAVVVNGHTEGPAPARSAPKEPPGLPRPLGSFPCPTPQEDFPALGGPCPPRMPPPPGFSAVVLLKGTPPPPPPGLVPPISKPPPGFSGLLPSPHPACVPSPATTTTTKAPRLLPAPRAYLVPENFRERNLQLIQSIRDFLQSDEARFSEFKSHSGEFRQGLISAAQYYKSCRDLLGENFQKVFNELLVLLPDTAKQQELLSAHTDFCNREKPLSTKSKKNKKSAWQATTQQAGLDCRVCPTCQQVLAHGDASSHQALHAARDDDFPSLQAIARIIT
B5 was tested, and the binding [6] was “binds”.
